{
  "source": "patent US12305171B2",
  "about": "“Compositions and methods for treating cancer” (bioAffinity Technologies, Inc., priority 2018, dated 2025)",
  "test_in_all_cases": "doxorubicin cell viability, CTG assay",
  "format_in_all_cases": "cell-based",
  "key": {"A549": {"tested_on": "A549", "details": "Homo sapiens, 96 h; A549, Lung; CTG 4 days after treatment", "protocol": "(§1) A172 and HCC15 cells were plated at 1200 cells/well in a 96 well plate. The next day, cells were treated with doxorubicin at the indicated concentrations. Four days after the doxorubicin exposure was initiated, the cells were assayed for viability using the CTG assay. […] After incubating the cells with the CTG reagent, ATP levels can be indirectly measured as light production using the TECAN luminescence plate reader. As a first step, toxicity of a known chemotherapeutic drug, doxorubicin, was assayed on the cell lines of interest. Doxorubicin was used as a positive control for cell toxicity in our assay.\n(§2) The cells lines were plated at 1,000 to 4,000 cells/well in a 96-well plate and treated with doxorubicin the following day. CTG activity was measured 4 days after treatment. IC50 values were calculated by GraphPad Prism Software."}, "MCF7": {"tested_on": "MCF7", "details": "Homo sapiens, 96 h; MCF7, Breast; CTG 4 days after treatment", "protocol": "as §1, §2"}, "MDA-MB-231": {"tested_on": "MDA-MB-231", "details": "Homo sapiens, 96 h; MDA-MB-231, Breast; CTG 4 days after treatment", "protocol": "as §1, §2"}},
  "data": [
    {"smiles": "COc1cccc2c1C(=O)c1c(O)c3c(c(O)c1C2=O)C[C@@](O)(C(=O)CO)C[C@@H]3O[C@H]1C[C@H](N)[C@H](O)[C@H](C)O1", "note": "[doxorubicin]", "values": [
      {"measurement": "IC50", "setting": "A549", "value": 126, "unit": "nM"},
      {"measurement": "IC50", "setting": "MCF7", "value": 121, "unit": "nM"},
      {"measurement": "IC50", "setting": "MDA-MB-231", "value": 43, "unit": "nM"}
    ]}
  ]
}
